The assay deals with ten-eleven translocation 1 (TET1) (human (endogenous in Ishikawa cells)) (UniProt Q8NFU7). Kind of assay: co-IP; hypoxia-treated ISK cells lysed in RIPA buffer with phosphatase inhibitors; 750 µl lysate with 2 µg antibody (rabbit HIF-2α, mouse HIF-1α or rabbit TET1) overnight at 4 °C; Protein G Plus/Protein A agarose 2 h at 4 °C; western blotting; rabbit and mouse IgG as negative controls.

By UniProt entry, the sequences of proteins in these tests, tags left out.
UniProt Q8NFU7: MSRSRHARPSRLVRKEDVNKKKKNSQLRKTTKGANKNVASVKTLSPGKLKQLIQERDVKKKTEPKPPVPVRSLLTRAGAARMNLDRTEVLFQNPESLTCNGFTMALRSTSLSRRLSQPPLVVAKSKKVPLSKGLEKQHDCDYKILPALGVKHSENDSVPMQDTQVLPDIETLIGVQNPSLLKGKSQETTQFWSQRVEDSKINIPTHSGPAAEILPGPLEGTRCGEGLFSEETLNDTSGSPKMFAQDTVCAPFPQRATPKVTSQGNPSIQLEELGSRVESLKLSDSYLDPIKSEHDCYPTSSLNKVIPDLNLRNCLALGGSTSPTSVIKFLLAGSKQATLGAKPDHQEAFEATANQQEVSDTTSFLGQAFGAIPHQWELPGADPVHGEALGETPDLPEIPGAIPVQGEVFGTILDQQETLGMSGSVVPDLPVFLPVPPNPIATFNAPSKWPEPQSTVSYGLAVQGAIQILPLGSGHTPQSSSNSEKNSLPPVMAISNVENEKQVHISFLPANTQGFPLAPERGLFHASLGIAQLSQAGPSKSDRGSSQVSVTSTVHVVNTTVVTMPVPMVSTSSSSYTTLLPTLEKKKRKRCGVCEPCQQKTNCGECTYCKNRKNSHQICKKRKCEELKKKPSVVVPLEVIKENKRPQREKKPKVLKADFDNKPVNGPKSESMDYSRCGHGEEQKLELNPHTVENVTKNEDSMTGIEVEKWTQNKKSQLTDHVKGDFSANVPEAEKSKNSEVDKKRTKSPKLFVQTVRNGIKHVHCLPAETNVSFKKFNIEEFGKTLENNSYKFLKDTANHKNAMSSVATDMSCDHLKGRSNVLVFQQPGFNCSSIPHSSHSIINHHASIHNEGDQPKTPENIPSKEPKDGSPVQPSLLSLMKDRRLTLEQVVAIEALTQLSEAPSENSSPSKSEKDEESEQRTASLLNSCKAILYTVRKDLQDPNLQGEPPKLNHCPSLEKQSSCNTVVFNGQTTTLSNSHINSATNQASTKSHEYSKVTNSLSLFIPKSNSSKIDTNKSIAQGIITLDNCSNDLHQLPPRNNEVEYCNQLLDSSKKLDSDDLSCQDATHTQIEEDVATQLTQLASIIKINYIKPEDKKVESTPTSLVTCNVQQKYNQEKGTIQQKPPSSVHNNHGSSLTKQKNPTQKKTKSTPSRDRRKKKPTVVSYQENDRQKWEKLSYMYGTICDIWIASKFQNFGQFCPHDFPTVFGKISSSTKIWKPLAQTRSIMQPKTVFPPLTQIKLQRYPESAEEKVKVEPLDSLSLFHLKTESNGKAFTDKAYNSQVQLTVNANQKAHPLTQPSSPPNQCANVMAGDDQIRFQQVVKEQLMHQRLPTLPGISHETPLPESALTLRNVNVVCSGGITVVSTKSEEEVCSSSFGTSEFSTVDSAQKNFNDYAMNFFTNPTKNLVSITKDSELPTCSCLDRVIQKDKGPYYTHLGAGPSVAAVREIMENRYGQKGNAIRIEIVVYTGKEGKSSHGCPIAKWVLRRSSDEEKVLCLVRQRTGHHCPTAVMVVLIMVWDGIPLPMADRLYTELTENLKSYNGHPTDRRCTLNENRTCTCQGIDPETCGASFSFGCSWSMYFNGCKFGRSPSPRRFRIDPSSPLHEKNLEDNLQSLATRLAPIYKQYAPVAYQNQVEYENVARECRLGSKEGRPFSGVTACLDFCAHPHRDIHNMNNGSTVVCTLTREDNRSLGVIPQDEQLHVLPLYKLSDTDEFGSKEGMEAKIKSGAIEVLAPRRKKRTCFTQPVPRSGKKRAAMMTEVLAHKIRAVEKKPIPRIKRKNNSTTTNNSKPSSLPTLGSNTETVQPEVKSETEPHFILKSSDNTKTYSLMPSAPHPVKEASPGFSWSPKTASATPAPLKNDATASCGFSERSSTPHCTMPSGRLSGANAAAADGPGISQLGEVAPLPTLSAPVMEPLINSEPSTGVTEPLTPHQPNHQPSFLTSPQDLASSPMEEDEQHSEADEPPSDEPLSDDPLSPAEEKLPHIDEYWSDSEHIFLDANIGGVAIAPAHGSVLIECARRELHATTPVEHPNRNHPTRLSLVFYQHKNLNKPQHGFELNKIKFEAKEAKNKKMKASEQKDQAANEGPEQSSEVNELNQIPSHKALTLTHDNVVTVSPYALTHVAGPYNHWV
UniProt Q99814: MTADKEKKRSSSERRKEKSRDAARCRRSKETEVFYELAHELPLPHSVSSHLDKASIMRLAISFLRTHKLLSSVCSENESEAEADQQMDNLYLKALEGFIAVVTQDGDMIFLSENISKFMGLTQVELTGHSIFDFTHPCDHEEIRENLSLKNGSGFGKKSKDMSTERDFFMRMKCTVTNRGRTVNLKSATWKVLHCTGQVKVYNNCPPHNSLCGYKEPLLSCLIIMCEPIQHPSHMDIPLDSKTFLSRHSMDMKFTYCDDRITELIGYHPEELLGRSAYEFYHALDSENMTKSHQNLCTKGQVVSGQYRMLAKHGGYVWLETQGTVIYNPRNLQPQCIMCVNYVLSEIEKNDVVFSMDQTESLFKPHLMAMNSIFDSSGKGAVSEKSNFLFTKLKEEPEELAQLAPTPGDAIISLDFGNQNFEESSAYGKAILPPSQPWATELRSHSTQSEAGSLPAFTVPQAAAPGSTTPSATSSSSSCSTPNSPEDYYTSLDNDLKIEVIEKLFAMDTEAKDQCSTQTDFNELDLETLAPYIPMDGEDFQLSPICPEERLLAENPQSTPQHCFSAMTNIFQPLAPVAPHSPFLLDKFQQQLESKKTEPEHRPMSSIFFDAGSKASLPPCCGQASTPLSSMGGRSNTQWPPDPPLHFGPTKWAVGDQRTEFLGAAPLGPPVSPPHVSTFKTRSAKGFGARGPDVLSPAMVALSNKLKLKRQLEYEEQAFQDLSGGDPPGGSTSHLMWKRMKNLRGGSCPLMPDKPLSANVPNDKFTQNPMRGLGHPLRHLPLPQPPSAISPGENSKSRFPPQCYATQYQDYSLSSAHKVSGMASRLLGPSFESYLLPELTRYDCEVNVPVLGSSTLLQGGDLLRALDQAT

The values that follow come from publication PMC7500323.

Results are given in words; binding and its absence hold for the method and conditions named. Binding seen in cells or lysates may run through a third protein. Some binding calls cover weakened binding; strength is not graded here.

Turning to “hypoxia-inducible factor 2α (HIF-2α) (from UniProt Q99814 1-870)”, the binding entry was “binds”.
